Results are given in words; binding and its absence hold for the method and conditions named. In cells and extracts the contact can be indirect.
How the values were obtained:
Test in all cases: co-IP
[1] = biological target: Flag-tagged nsp8 of SARS-CoV-2 (SARS-CoV-2) (UniProt P0DTD1)
[2] = biological target: Flag-tagged nsp7 of SARS-CoV-2 (SARS-CoV-2) (UniProt P0DTD1)
[3] = biological target: Flag-tagged nsp12 of SARS-CoV-2 (SARS-CoV-2) (UniProt P0DTD1)

Measured: binding

CDK5, endogenous (from UniProt Q00535 1-292) (enzyme)
no binding: all assays above

— PMC9793359
